Data as given in the supplement of paper PMC10849652.
The list shows a part of the results.

The chains behind the UniProt entries cited, without tags or fusion partners. Where a name states a change or a piece, a line headed by the entry shows the natural chain unless it says otherwise.
UniProt Q9BRJ6: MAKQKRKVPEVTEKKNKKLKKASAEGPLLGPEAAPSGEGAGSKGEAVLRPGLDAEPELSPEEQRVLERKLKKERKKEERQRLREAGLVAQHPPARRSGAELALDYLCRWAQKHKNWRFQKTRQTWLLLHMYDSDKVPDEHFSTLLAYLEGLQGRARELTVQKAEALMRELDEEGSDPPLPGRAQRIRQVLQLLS
UniProt Q9H3J6: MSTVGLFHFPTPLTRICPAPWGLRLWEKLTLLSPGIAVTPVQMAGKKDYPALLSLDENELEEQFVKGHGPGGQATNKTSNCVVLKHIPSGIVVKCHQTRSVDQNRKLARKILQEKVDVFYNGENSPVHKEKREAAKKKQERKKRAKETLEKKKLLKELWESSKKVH
UniProt Q9Y6W3: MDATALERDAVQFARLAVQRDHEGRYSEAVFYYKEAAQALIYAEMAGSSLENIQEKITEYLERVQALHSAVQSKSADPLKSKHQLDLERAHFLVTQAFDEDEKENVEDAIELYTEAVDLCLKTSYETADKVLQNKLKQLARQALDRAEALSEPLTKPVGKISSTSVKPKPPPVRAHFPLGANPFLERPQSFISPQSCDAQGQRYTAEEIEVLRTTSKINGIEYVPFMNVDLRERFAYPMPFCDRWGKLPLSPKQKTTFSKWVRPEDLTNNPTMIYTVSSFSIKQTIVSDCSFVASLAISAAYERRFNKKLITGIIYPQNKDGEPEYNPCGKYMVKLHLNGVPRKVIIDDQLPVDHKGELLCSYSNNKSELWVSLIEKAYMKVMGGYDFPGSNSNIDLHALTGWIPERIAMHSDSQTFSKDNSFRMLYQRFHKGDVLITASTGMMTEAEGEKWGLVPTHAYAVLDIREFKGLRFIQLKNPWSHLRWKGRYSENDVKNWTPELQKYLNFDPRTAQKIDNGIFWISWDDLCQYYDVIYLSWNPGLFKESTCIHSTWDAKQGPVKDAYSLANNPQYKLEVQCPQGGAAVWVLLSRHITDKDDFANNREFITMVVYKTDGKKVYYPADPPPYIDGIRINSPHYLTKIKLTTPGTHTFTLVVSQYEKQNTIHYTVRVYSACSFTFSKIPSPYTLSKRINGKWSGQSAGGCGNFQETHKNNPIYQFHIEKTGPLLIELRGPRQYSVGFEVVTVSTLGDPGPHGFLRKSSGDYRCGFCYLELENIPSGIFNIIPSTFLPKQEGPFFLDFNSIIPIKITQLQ
UniProt P27797, whole entry, looked up: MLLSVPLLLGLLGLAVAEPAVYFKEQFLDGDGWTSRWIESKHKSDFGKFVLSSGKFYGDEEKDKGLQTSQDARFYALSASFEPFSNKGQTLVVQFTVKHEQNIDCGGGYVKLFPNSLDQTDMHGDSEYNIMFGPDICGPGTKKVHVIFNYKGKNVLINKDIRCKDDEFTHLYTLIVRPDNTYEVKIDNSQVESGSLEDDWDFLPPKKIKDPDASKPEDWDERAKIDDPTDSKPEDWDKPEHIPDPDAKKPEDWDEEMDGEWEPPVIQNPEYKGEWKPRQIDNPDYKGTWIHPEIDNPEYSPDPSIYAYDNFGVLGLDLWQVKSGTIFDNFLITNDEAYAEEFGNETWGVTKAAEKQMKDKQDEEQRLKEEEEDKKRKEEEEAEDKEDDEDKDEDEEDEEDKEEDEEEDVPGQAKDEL
UniProt Q9H3H3: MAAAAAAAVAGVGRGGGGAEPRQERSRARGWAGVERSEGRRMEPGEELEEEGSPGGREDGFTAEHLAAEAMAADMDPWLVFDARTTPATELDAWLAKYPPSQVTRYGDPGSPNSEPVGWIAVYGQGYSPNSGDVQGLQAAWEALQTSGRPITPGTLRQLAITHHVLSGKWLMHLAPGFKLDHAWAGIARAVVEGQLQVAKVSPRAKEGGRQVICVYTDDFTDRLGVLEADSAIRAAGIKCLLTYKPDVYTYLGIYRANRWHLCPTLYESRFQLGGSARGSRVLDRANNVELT
UniProt Q96N11, whole entry, looked up: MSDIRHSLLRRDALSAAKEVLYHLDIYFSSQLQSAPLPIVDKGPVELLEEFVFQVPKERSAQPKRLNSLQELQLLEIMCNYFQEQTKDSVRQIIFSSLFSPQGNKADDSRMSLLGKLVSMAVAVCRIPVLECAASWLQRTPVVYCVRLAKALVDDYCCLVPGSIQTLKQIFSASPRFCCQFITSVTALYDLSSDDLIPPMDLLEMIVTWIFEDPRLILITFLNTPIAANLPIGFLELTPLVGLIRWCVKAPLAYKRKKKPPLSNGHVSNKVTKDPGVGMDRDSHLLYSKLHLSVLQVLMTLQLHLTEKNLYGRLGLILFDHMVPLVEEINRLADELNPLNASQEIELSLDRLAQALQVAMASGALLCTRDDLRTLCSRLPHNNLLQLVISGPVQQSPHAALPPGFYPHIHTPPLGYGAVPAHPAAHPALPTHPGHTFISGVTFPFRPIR
UniProt O43684, whole entry, looked up: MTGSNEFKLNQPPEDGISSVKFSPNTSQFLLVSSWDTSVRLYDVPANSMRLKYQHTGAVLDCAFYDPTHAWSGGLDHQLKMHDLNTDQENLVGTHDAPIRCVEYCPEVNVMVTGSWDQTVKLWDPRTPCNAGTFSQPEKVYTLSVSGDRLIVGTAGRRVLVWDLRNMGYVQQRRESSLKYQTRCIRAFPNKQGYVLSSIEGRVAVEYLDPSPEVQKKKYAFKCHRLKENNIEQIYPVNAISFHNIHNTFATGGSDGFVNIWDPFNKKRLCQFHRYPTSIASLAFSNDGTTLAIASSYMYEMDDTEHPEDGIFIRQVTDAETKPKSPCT
UniProt Q5T5Y3: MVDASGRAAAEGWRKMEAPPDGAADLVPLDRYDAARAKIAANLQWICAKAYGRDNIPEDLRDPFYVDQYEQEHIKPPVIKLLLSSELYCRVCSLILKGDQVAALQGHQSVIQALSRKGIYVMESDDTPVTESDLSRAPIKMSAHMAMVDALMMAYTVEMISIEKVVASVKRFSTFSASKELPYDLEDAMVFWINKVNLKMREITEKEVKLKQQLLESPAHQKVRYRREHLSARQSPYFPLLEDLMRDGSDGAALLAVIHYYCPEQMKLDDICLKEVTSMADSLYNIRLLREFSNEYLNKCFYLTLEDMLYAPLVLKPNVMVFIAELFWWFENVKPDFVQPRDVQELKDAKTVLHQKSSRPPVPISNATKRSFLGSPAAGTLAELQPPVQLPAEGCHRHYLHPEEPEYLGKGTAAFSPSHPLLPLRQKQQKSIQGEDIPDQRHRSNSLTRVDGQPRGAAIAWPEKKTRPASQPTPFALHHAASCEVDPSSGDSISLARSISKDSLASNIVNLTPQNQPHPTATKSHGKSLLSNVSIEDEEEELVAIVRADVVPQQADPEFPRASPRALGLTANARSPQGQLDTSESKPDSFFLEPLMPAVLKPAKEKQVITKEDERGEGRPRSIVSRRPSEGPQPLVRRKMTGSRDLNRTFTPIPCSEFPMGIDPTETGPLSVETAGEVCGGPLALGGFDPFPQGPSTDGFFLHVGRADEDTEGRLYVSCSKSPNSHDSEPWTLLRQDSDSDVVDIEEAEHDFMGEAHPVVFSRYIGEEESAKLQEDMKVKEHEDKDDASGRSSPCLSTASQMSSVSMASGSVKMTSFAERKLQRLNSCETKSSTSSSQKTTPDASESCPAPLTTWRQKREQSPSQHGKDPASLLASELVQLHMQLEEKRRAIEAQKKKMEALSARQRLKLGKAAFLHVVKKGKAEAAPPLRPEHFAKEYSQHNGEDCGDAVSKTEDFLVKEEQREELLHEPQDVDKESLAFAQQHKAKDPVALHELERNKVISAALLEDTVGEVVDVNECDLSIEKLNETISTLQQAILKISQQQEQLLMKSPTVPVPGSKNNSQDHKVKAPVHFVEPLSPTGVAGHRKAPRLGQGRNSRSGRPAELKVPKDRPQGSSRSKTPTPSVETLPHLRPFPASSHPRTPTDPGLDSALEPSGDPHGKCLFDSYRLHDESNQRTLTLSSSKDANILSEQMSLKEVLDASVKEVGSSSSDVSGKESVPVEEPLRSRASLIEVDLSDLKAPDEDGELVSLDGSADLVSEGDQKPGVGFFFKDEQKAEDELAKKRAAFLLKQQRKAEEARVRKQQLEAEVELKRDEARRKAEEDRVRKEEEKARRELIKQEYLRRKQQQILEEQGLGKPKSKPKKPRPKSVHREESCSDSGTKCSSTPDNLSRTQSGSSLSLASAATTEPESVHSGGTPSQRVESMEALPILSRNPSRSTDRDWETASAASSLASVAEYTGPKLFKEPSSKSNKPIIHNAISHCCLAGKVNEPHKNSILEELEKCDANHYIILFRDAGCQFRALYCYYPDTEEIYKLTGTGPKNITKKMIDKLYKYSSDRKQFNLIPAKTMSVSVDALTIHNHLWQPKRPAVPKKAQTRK
UniProt Q9H8G2: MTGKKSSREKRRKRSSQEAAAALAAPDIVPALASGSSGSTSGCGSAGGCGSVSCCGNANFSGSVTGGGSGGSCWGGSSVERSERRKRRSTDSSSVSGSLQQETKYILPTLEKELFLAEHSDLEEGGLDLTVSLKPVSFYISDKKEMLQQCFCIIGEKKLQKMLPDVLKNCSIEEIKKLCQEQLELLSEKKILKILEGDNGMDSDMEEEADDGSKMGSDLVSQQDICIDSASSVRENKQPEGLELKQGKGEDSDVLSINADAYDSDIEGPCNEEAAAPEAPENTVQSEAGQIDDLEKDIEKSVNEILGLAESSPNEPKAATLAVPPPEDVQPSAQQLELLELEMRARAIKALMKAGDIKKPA
UniProt O43683: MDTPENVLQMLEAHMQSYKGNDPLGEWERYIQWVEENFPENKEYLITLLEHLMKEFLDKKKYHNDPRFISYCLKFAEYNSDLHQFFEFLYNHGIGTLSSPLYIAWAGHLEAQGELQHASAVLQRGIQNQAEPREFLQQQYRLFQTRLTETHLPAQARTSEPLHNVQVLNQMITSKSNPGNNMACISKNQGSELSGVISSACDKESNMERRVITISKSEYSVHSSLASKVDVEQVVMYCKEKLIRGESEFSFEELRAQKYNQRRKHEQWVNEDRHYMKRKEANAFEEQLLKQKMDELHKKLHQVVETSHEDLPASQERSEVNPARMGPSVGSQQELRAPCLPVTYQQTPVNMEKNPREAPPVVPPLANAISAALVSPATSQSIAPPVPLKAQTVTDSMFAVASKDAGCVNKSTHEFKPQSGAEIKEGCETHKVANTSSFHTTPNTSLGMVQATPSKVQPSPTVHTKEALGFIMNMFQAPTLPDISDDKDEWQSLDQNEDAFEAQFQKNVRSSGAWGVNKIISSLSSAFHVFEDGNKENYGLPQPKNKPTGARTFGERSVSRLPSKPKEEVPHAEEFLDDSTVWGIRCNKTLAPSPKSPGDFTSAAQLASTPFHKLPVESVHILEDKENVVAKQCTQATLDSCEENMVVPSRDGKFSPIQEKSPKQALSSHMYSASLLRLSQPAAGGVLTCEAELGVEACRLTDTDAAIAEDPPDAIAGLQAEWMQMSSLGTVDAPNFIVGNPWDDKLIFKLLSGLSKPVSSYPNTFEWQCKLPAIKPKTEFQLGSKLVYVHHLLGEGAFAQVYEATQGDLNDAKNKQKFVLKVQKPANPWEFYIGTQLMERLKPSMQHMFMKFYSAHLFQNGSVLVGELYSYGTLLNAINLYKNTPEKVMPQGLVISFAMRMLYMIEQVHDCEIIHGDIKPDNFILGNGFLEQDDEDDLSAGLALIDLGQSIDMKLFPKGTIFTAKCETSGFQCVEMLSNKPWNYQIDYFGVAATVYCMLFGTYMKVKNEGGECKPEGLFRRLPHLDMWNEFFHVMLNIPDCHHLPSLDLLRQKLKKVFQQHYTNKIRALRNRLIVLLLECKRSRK
UniProt Q9BV19: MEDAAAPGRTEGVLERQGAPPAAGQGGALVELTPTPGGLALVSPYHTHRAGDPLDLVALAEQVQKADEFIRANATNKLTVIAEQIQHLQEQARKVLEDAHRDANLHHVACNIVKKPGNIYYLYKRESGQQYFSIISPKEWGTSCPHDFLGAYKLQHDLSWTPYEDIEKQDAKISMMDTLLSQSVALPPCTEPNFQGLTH
UniProt P40121: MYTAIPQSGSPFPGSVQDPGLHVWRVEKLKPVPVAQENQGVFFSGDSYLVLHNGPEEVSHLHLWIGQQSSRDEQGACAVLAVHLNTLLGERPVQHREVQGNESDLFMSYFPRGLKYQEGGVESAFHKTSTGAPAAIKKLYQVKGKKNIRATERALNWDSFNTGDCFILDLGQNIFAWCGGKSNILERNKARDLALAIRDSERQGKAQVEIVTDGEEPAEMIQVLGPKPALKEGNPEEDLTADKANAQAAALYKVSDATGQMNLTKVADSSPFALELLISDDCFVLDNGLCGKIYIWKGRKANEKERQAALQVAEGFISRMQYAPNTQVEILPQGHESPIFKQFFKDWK
UniProt A6NDU8: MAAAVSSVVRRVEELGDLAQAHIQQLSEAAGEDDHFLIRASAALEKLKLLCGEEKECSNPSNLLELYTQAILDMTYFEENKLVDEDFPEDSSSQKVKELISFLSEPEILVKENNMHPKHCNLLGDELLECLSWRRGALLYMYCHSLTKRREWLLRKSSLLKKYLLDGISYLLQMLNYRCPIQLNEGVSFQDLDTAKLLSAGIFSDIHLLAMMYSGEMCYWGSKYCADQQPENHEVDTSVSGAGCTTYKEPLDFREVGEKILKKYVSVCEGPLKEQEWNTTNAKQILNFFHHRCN

Tests used:
Experiment in all cases: log2 fold change, soluble protein after heating vs DMSO (PISA); higher = thermal stabilisation; K562 lysate, 10 uM; active = over 0.2 and 3.5 SD of the protein, either way, in both replicates (recomputed)
vemurafenib = compound: CCCS(=O)(=O)Nc1ccc(F)c(C(=O)c2c[nH]c3ncc(-c4ccc(Cl)cc4)cc23)c1F [vemurafenib]
In short: (§1)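 Pellets of K562 cells were dounce-homogenised in PBS pH 7.4 with 1 mM MgCl2, and the crude extract was held at 1 mg/mL protein for a 30 min treatment with 10 μM compound. Aliquots were heated for 3 min over 48°C-58°C and pooled before NP-40 was added to 0.5% at 4°C. The supernatant from 21,000xg for 90 min was quantified by TMTpro 16plex LC-MS/MS with channel sums equalised. Values are reported from duplicates as log-two fold change in thermal stability relative to solvent controls.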

[1] = compound: CCCS(=O)(=O)Nc1ccc(F)c(C(=O)c2c[nH]c3ncc(Cl)cc23)c1F
In short: as §1

barasertib = compound: CCN(CCCOc1ccc2c(Nc3cc(CC(=O)Nc4cccc(F)c4)[nH]n3)ncnc2c1)CCOP(=O)(O)O [barasertib]
In short: as §1

[2] = compound: CC[C@@H]1C(=O)N(C)c2cnc(Nc3ccc(C(=O)NC4CCN(C)CC4)cc3OC)nc2N1C1CCCC1
In short: as §1

volasertib = compound: CC[C@@H]1C(=O)N(C)c2cnc(Nc3ccc(C(=O)N[C@H]4CC[C@H](N5CCN(CC6CC6)CC5)CC4)cc3OC)nc2N1C(C)C [volasertib]
In short: as §1

[3] = compound: CCn1c(C(=O)N(C2CC2)C2CC2)cc2c3c(ncn3C)c(Nc3cc(C)n(C)n3)nc21
In short: as §1

[4] = compound: CCn1cc(-c2ccnc3[nH]c(-c4cccc(CN(C)C)c4)cc23)c(-c2ccc(NC(=O)N(C)C)cc2)n1
In short: as §1

[5] = compound: CN1CCC(CNc2ccc3ncc(-c4cccc(OC(F)(F)F)c4)n3n2)CC1
In short: as §1

saracatinib = compound: CN1CCN(CCOc2cc(OC3CCOCC3)c3c(Nc4c(Cl)ccc5c4OCO5)ncnc3c2)CC1 [saracatinib]
In short: as §1

sotrastaurin = compound: CN1CCN(c2nc(C3=C(c4c[nH]c5ccccc45)C(=O)NC3=O)c3ccccc3n2)CC1 [sotrastaurin]
In short: as §1

alvocidib = compound: CN1CC[C@H](c2c(O)cc(O)c3c(=O)cc(-c4ccccc4Cl)oc23)[C@H](O)C1 [alvocidib]
In short: as §1

Tubastatin A = compound: CN1CCc2c(c3ccccc3n2Cc2ccc(C(=O)NO)cc2)C1 [Tubastatin A]
In short: as §1

[6] = compound: CNC(=O)C1=CC=CC=C1NC2=NC(=NC=C2Cl)NC3=C(C=C(C=C3)N4CCOCC4)OC
In short: as §1

defactinib = compound: CNC(=O)c1ccc(Nc2ncc(C(F)(F)F)c(NCc3nccnc3N(C)S(C)(=O)=O)n2)cc1 [defactinib]
In short: as §1

[7] = compound: CNc1nc(-c2ccc3c(N)n[nH]c3c2)cc(N2C[C@@H](C(=O)NC3CCCCC3)CC[C@H]2C)n1
In short: as §1

encorafenib = compound: COC(=O)N[C@@H](C)CNc1nccc(-c2cn(C(C)C)nc2-c2cc(Cl)cc(NS(C)(=O)=O)c2F)n1 [encorafenib]
In short: as §1

[8] = compound: COC(=O)[C@H](CCSC)NC(=O)C1=C(C=C(C=C1)NC[C@H](CS)N)C2=CC=CC=C2
In short: as §1

alisertib = compound: COc1cc(Nc2ncc3c(n2)-c2ccc(Cl)cc2C(c2c(F)cccc2OC)=NC3)ccc1C(=O)O [alisertib]
In short: as §1

[9] = compound: COc1cc2nc(-c3cc(F)ccc3O)nc(N[C@@H]3CNC[C@H]3C(C)(C)O)c2cc1OC
In short: as §1

gefitinib = compound: COc1cc2ncnc(Nc3ccc(F)c(Cl)c3)c2cc1OCCCN1CCOCC1 [gefitinib]
In short: as §1

Measured: log2 fold change

C7orf50 (UniProt Q9BRJ6)
inactive: vemurafenib -0.007 | [1] 0.047 | barasertib 0.026 | [2] -0.014 | volasertib 0.048 | [3] -0.084 | [4] 0.004 | [5] -0.019 | saracatinib -0.041 | sotrastaurin 0.005 | alvocidib 0.014 | Tubastatin A -0.039 | [6] -0.063 | defactinib -0.012 | [7] -0.105 | encorafenib 0.027 | [8] -0.008 | alisertib 0.044 | [9] -0.011 | gefitinib 0.038

C12orf65 (UniProt Q9H3J6)
inactive: vemurafenib -0.009 | [1] 0.011 | barasertib -0.017 | [2] -0.024 | volasertib -0.011 | [3] -0.036 | [4] 0.01 | [5] -0.1 | saracatinib 0.038 | sotrastaurin 0.009 | alvocidib 0.022 | Tubastatin A 0.027 | [6] 0.001 | defactinib 0.026 | [7] -0.056 | encorafenib 0.007 | [8] 0.018 | alisertib -0.102 | [9] -0.004 | gefitinib -0.065

CAPN7 (UniProt Q9Y6W3)
inactive: vemurafenib -0.034 | [1] 0.02 | barasertib 0.029 | [2] -0.008 | volasertib 0.012 | [3] -0.013 | [4] -0.032 | [5] 0.03 | saracatinib -0.002 | sotrastaurin -0.011 | alvocidib -0.015 | Tubastatin A -0.021 | [6] 0.002 | defactinib 0.033 | [7] -0.032 | encorafenib 0.02 | [8] -0.025 | alisertib -0.015 | [9] 0.007 | gefitinib -0.035

CALR (UniProt P27797)
inactive: vemurafenib 0.001 | [1] -0.024 | barasertib -0.051 | [2] 0.016 | volasertib -0.006 | [3] -0.002 | [4] 0.088 | [5] -0.021 | saracatinib -0.003 | sotrastaurin 0.009 | alvocidib 0.042 | Tubastatin A 0 | [6] -0.011 | defactinib 0.002 | [7] -0.008 | encorafenib -0.024 | [8] -0.008 | alisertib -0.016 | [9] -0.007 | gefitinib -0.024

C11orf68 isoform 3 (UniProt Q9H3H3)
inactive: vemurafenib 0.008 | [1] -0.004 | barasertib 0.001 | [2] 0.065 | volasertib -0.004 | [3] -0.04 | [4] 0.012 | [5] 0.05 | saracatinib 0.022 | sotrastaurin -0.014 | alvocidib -0.045 | Tubastatin A 0.001 | [6] 0.016 | defactinib -0.031 | [7] 0.013 | encorafenib 0.006 | [8] -0.081 | alisertib 0.008 | [9] 0 | gefitinib 0.02

CALU isoform 3 (UniProt O43852)
inactive: vemurafenib 0.003 | [1] -0.002 | barasertib -0.045 | [2] 0.053 | volasertib 0.03 | [3] -0.023 | [4] 0.069 | [5] 0.019 | saracatinib -0.003 | sotrastaurin -0.002 | alvocidib -0.034 | Tubastatin A -0.003 | [6] -0.016 | defactinib -0.035 | [7] -0.006 | encorafenib -0.012 | [8] -0.018 | alisertib 0.03 | [9] 0.016 | gefitinib 0.011

Reprinted at random: 2 records from the list
CAPN7 (UniProt Q9Y6W3)
inactive: vemurafenib -0.034 | [1] 0.02 | barasertib 0.029 | [2] -0.008 | volasertib 0.012 | [3] -0.013 | [4] -0.032 | [5] 0.03 | saracatinib -0.002 | sotrastaurin -0.011 | alvocidib -0.015 | Tubastatin A -0.021 | [6] 0.002 | defactinib 0.033 | [7] -0.032 | encorafenib 0.02 | [8] -0.025 | alisertib -0.015 | [9] 0.007 | gefitinib -0.035

C11orf68 isoform 3 (UniProt Q9H3H3)
inactive: vemurafenib 0.008 | [1] -0.004 | barasertib 0.001 | [2] 0.065 | volasertib -0.004 | [3] -0.04 | [4] 0.012 | [5] 0.05 | saracatinib 0.022 | sotrastaurin -0.014 | alvocidib -0.045 | Tubastatin A 0.001 | [6] 0.016 | defactinib -0.031 | [7] 0.013 | encorafenib 0.006 | [8] -0.081 | alisertib 0.008 | [9] 0 | gefitinib 0.02

(further entries)

C7orf26 (UniProt Q96N11)
inactive: vemurafenib 0.1 | [1] -0.027 | barasertib -0.137 | [2] -0.006 | volasertib 0 | [3] -0.019 | [4] -0.056 | [5] -0.035 | saracatinib 0.03 | sotrastaurin -0.07 | alvocidib 0.08 | Tubastatin A 0.005 | [6] 0.011 | defactinib -0.065 | [7] 0.069 | encorafenib 0.005 | [8] 0.051 | alisertib -0.244 | [9] 0.054 | gefitinib 0.219

BUB3 (UniProt O43684)
inactive: vemurafenib 0.03 | [1] -0.013 | barasertib -0.03 | [2] -0.043 | volasertib 0.026 | [3] -0.016 | [4] -0.015 | [5] 0.055 | saracatinib 0.023 | sotrastaurin 0.01 | alvocidib -0.04 | Tubastatin A 0.016 | [6] 0 | defactinib 0.014 | [7] -0.029 | encorafenib 0.001 | [8] 0.018 | alisertib 0.005 | [9] -0.015 | gefitinib 0.012

CAMSAP1 isoform 3 (UniProt Q5T5Y3)
inactive: vemurafenib 0.004 | [1] 0.029 | barasertib 0.006 | [2] 0.003 | volasertib 0.051 | [3] -0.031 | [4] 0.137 | [5] -0.03 | saracatinib 0.008 | sotrastaurin 0.014 | alvocidib 0.042 | Tubastatin A -0.093 | [6] 0.02 | defactinib -0.027 | [7] -0.021 | encorafenib 0.024 | [8] -0.003 | alisertib -0.03 | [9] -0.033 | gefitinib -0.041

CAAP1 (UniProt Q9H8G2)
inactive: vemurafenib -0.061 | [1] -0.021 | barasertib 0.005 | [2] 0.054 | volasertib -0.003 | [3] -0.026 | [4] -0.153 | [5] 0.124 | saracatinib -0.018 | sotrastaurin 0.082 | alvocidib -0.025 | Tubastatin A -0.001 | [6] 0.038 | defactinib -0.019 | [7] 0.08 | encorafenib 0.075 | [8] -0.085 | alisertib -0.006 | [9] 0.101 | gefitinib -0.014

BUB1 (UniProt O43683)
inactive: vemurafenib 0.077 | [1] -0.063 | barasertib 0.034 | [2] -0.088 | volasertib -0.073 | [3] -0.027 | [4] -0.159 | [5] 0.06 | saracatinib 0.041 | sotrastaurin -0.019 | alvocidib -0.025 | Tubastatin A -0.102 | [6] 0.124 | defactinib -0.109 | [7] 0.04 | encorafenib 0.043 | [8] 0.062 | alisertib 0.07 | [9] -0.01 | gefitinib -0.023

C1orf50 (UniProt Q9BV19)
inactive: vemurafenib 0.013 | [1] -0.025 | barasertib 0.157 | [2] 0.016 | volasertib 0.102 | [3] 0.006 | [4] -0.118 | [5] -0.072 | saracatinib 0.011 | sotrastaurin -0.016 | alvocidib 0.001 | Tubastatin A 0.039 | [6] -0.056 | defactinib 0.052 | [7] 0.013 | encorafenib 0.035 | [8] -0.034 | alisertib -0.126 | [9] -0.02 | gefitinib -0.189

CAPZB isoform 2 (UniProt P47756)
inactive: vemurafenib -0.005 | [1] -0.084 | barasertib -0.022 | [2] 0.012 | volasertib 0.022 | [3] 0.034 | [4] -0.079 | [5] 0.044 | saracatinib 0.003 | sotrastaurin -0.024 | alvocidib -0.03 | Tubastatin A -0.005 | [6] -0.075 | defactinib -0.057 | [7] -0.027 | encorafenib -0.045 | [8] 0.011 | alisertib -0.061 | [9] 0.028 | gefitinib 0.119

CAPG (UniProt P40121)
inactive: vemurafenib 0.013 | [1] -0.01 | barasertib -0.032 | [2] -0.026 | volasertib 0.002 | [3] -0.03 | [4] -0.058 | [5] 0.01 | saracatinib 0.015 | sotrastaurin 0.011 | alvocidib 0.012 | Tubastatin A 0.03 | [6] -0.045 | defactinib -0.02 | [7] -0.016 | encorafenib -0.07 | [8] -0.022 | alisertib -0.045 | [9] 0.005 | gefitinib -0.022

C5orf51 (UniProt A6NDU8)
inactive: vemurafenib -0.002 | [1] 0.009 | barasertib 0.046 | [2] -0.014 | volasertib -0.029 | [3] 0.053 | [4] 0.036 | [5] -0.137 | saracatinib 0.016 | sotrastaurin 0.036 | alvocidib 0.075 | Tubastatin A -0.123 | [6] -0.01 | defactinib -0.045 | [7] -0.043 | encorafenib -0.006 | [8] 0.144 | alisertib 0.023 | [9] 0.038 | gefitinib 0.056

C11orf98 (UniProt E9PRG8)
inactive: vemurafenib 0.03 | [1] -0.013 | barasertib -0.011 | [2] 0.046 | volasertib -0.013 | [3] -0.021 | [4] -0.025 | [5] 0.032 | saracatinib -0.035 | sotrastaurin 0.007 | alvocidib 0.003 | Tubastatin A 0.064 | [6] -0.003 | defactinib -0.023 | [7] 0.091 | encorafenib 0.036 | [8] -0.042 | alisertib -0.013 | [9] 0.014 | gefitinib -0.004
